In patent US20150030595A1:
These are yes or no findings as the source states them, for the method shown. Some results given as binding are weak or reduced against the parent protein; the word gives no strength.

By UniProt entry, the sequences of proteins in these tests, tags left out. Residues count along the entry.
UniProt P80370, residues 24-383: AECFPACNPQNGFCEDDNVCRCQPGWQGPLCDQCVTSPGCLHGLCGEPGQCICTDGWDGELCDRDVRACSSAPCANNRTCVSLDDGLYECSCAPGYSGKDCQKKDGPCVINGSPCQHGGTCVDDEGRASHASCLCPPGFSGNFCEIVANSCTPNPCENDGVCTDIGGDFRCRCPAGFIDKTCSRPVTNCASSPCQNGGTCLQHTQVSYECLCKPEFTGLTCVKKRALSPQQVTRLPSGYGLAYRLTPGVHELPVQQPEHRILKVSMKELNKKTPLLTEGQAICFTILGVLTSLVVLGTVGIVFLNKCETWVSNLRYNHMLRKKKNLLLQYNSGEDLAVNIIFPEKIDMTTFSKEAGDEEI

How the values were obtained:
[1] = biological target: T1, DLK1 in the lysate of the myoblast C2C12 cell line (UniProt Q09163); experiment: immunoprecipitation from C2C12 lysate with B09, western blot with DLK1 antibody
T1 sequence (looked up): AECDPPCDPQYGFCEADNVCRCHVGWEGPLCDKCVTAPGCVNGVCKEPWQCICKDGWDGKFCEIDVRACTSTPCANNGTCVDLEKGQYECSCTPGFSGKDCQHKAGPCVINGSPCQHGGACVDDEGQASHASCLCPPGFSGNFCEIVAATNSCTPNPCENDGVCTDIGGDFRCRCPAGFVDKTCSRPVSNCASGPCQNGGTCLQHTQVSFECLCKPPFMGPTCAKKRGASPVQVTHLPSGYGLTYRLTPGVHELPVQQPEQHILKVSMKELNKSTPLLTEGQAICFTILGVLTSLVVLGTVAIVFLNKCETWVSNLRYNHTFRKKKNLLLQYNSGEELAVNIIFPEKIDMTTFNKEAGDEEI

[2] = biological target: DLK1 on 293E cells expressing DLK1 (UniProt P80370); experiment: flow cytometry on 293E cells expressing DLK1
[3] = biological target: DLK1 on 293E cells expressing DLK1 (UniProt P80370); experiment: flow cytometry on 293E cells (upper panel); immunofluorescent staining (lower panel)
[4] = biological target: DLK1 on 293E cells expressing DLK1 (UniProt P80370); experiment: flow cytometry and immunofluorescent staining

Measured: binding

B1: human antibody B09 (full-length IgG) (antibody, V domains shown)
VH: QMQLVESGGRLVRPGGSLRLSCAASGFPFTSYAMNWVRQTPGKGLEWVSTITATSGKTYYADSVKGRFTISRDNSRNTLFLQMNSLRAEDTAVYYCVRGESCSGGACSDFDYWGQGALVTVSS
VL: QLVLTQPASVSGSPGQSVTISCTGTSSDIGRYNRVSWYQHHPGKAPKLILNDVTTRPSGFSNRFSGSKSGNTASLTISGLQAEDEADYSCGSYAGSYTYVFGTGTKVTVL
binds: [1] | [2] | [3] | [4]
